{
  "source": "PubChem BioAssay AID1347076",
  "about": "(National Center for Advancing Translational Sciences (NCATS), 2019)",
  "note": "Screen size: about 400,000 compounds; about 13,000 (3.2%) were called active. This list was built around the results that the source calls inconclusive (neither active nor inactive); the mix of calls is not that of the screen. The call rests on the fitted dose curve; in most records, active means well fitted cell-killing curve with a large enough effect; inconclusive means small, poorly fitted or top-dose-only effect, or effect the other way; inactive means flat fitted curve, though single readings scatter. Potencies of inconclusive entries are doubtful fits and often do not repeat. On the % scale 0 is the no-effect control and ±100 the full control effect; potency means the concentration at half of the fitted maximal effect.",
  "data": [
    {"test": "qHTS assay for MDR1-selective chemotherapeutics: Primary screen using the drug-selected MDR subline cells KB-V1; further: nearly all actives have a fitted effect of over 60% in size", "details": "KB-V1 MDR cells viability, CellTiter-Glo, 72 h; activity change, negative = cytotoxicity: at 46.1 µM (top of the series)", "outline": "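Cells of the MDR subline KB-V1 are plated, dosed with compound at multiple concentrations, and incubated 72 h at 37 degrees C; CellTiter-Glo is then added and luminescence read after 10 min.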", "values": [
      {"smiles": "O=S1(=O)CCN(C2CCCC2)CC1", "activity change, negative = cytotoxicity": "inactive: 11.3%"},
      {"smiles": "OCCC1CN(Cc2ccc3nsnc3c2)CCN1CCc1ccccc1", "note": "(centres undefined)", "Potency": "inconclusive: 7.31 µM [cytotoxic, partial curve, poor fit]"},
      {"smiles": "O=C(CSc1nc(=O)n(Cc2ccncc2)c2c1CCC2)Nc1ccccc1", "activity change, negative = cytotoxicity": "inactive: 25.8%"},
      {"smiles": "COc1ccc(Cn2ccc3nc(C)c(C(=O)Nc4ccc(OC)c(OC)c4)cc3c2=O)cc1", "Potency": "inconclusive: 18.4 µM [rising, single point]"},
      {"smiles": "O=C(CSCc1ccc(Cl)cc1)Nc1ccc(O)cc1C(=O)O", "Potency": "inconclusive: 29.1 µM [rising, single point]"},
      {"smiles": "COc1ccc(/C=N/Nc2nonc2N)c(OC)c1", "Potency": "active: 4.11 µM"},
      {"smiles": "Cc1ccc(OCC(=O)NNc2c3ccccc3nc3ccccc23)cc1", "Potency": "active: 18.4 µM"},
      {"smiles": "CCOC(=O)/C=C/C(=O)Nc1nccs1", "activity change, negative = cytotoxicity": "inactive: -3.22%"},
      {"smiles": "CCCN(CCC)C(=O)c1c[nH]c2ccc(S(=O)(=O)N(C)c3ccc(Cl)cc3)cc2c1=O", "Potency": "inconclusive: 14.6 µM [rising, single point]"},
      {"smiles": "OCCN1CCN(CCCN2c3ccccc3Sc3ccc(Cl)cc32)CC1", "Potency": "inconclusive: 25.9 µM [cytotoxic, partial curve, poor fit]"},
      {"smiles": "CCC(C)C(NC(=O)c1ccccc1NC(=O)c1ccccc1)C(=O)N1CCOCC1", "note": "(centres undefined)", "Potency": "inconclusive: 2.91 µM [cytotoxic, full curve]"},
      {"smiles": "O=C(Nc1ccccc1)NN(C(=O)CCl)c1ccccc1", "Potency": "inconclusive: 20.6 µM [cytotoxic, partial curve, poor fit]"},
      {"smiles": "COc1ccc(C(=O)NC2=NCCS2)cc1S(=O)(=O)N1CCCCC1C", "note": "(centres undefined)", "Potency": "inconclusive: 0.092 µM [cytotoxic, full curve, poor fit]"},
      {"smiles": "O=[N+]([O-])c1cccc(-c2c[n+]3c(n2-c2ccccc2)SCC3)c1", "activity change, negative = cytotoxicity": "inactive: 1.3%"},
      {"smiles": "COc1ccccc1-c1cc(C(=O)Nc2c(C)nn(Cc3ccc(Cl)cc3)c2C)no1", "activity change, negative = cytotoxicity": "inactive: 3.2%"},
      {"smiles": "CSCCC(NC(=O)c1ccccc1)C(=O)O", "note": "(centres undefined)", "Potency": "inconclusive: 11.6 µM [rising, single point]"},
      {"smiles": "C/C(=N\\NC(=O)c1cccc(S(=O)(=O)N2CCOCC2)c1)c1cc2ccccc2o1", "Potency": "inconclusive: 14.6 µM [cytotoxic, partial curve]"},
      {"smiles": "CCCCC(=O)Nc1cccc(NC(=S)NC(=O)C(C)C)c1", "Potency": "active: 20.6 µM"},
      {"smiles": "CCCCOC(=O)c1ccc(NC(=O)C2(c3cccs3)CCOCC2)cc1", "activity change, negative = cytotoxicity": "inactive: 12.9%"},
      {"smiles": "Cc1ccccc1C(=O)N1CCC(C(=O)NN2C(=O)NC3(CCCCC3)C2=O)CC1", "Potency": "inconclusive: 20.6 µM [cytotoxic, single point]"},
      {"smiles": "Cc1cc(Cl)ccc1Oc1ncc(-c2ccc(Cl)cc2)cn1", "Potency": "active: 18.4 µM"},
      {"smiles": "NC(=O)NNC1=Nc2cccc3cccc1c23", "activity change, negative = cytotoxicity": "inactive: -24.8%"},
      {"smiles": "Cc1ccc(C(=O)COC(=O)c2cccc([N+](=O)[O-])c2)s1", "Potency": "inconclusive: 29.1 µM [rising, single point]"},
      {"smiles": "Cc1nc2ccccc2c2oc(C(=O)N3CCc4ccccc4C3)cc12", "activity change, negative = cytotoxicity": "inactive: -4.6%"},
      {"smiles": "CC(=O)c1ccc(OCCCC(=O)NCc2nnc3ccccn23)cc1", "activity change, negative = cytotoxicity": "inactive: 9.38%"},
      {"smiles": "Cc1cccc(OCCC(=O)OCC(=O)N2c3ccccc3NC(=O)C2(C)C)c1", "Potency": "inconclusive: 18.4 µM [rising, single point]"},
      {"smiles": "Cc1[nH]n(C(N)=S)c(=O)c1N=Nc1ccc2ccccc2c1", "Potency": "inconclusive: 29.1 µM [cytotoxic, single point]"},
      {"smiles": "CCCCn1c(=O)c2c(O)cc(=O)oc2c2ccccc21", "Potency": "active: 4.61 µM"},
      {"smiles": "COc1ccc(CC(=O)NC(C)C2COc3ccccc3O2)cc1OC", "note": "(centres undefined)", "Potency": "inconclusive: 13 µM [cytotoxic, partial curve]"},
      {"smiles": "Cc1ccc(Cn2cc(S(=O)(=O)c3ccccc3)c(=O)c3cc(F)c(N4CCOCC4)cc32)cc1", "activity change, negative = cytotoxicity": "inactive: 26.4%"},
      {"smiles": "CN(C)c1ccc(/C=C/C(=O)c2cccnc2)cc1", "activity change, negative = cytotoxicity": "inactive: -11.8%"},
      {"smiles": "CC1C(=O)N(Cc2cn(Cc3ccco3)nn2)CCS(=O)(=O)N1Cc1ccc(-c2ccc(F)cc2Cl)cc1", "note": "(centres undefined)", "Potency": "inconclusive: 29.1 µM [cytotoxic, single point]"},
      {"smiles": "COc1ccccc1N1CCN(S(=O)(=O)CCNC(=O)c2cc(=O)c3ccccc3o2)CC1", "Potency": "inconclusive: 14.6 µM [cytotoxic, partial curve]"},
      {"smiles": "COc1ccc(NC(=O)Nc2cnccn2)cc1OC", "Potency": "inconclusive: 29.1 µM [cytotoxic, single point]"},
      {"smiles": "Cc1ccc(F)c(S(=O)(=O)NC(=O)C2(C)CCN2C(=O)Cc2ccc(-c3ccccc3)cc2)c1", "note": "(centres undefined)", "activity change, negative = cytotoxicity": "inactive: 5.43%"},
      {"smiles": "COc1cccc(NC(=O)C(C)N2C(=O)c3ccccc3C2=O)c1", "note": "(centres undefined)", "Potency": "inconclusive: 16.4 µM [rising, single point]"},
      {"smiles": "CC(C)(Oc1ccc(Cl)cc1)C(=O)Nc1ccc(-c2nc3ncccc3o2)cc1", "activity change, negative = cytotoxicity": "inactive: -4.46%"},
      {"smiles": "CC(=O)CCc1c(C)nc2ccc(C(=O)O)cc2c1Cl", "Potency": "inconclusive: 4.61 µM [rising, partial curve, poor fit]"},
      {"smiles": "Cc1ccnc(Nc2nc(-c3sc(C)nc3C)cs2)c1", "Potency": "inconclusive: 29.1 µM [cytotoxic, single point]"},
      {"smiles": "O=C(CC1SC(=NCCc2ccccc2)N(/N=C/c2cccs2)C1=O)Nc1ccc(Cl)cc1", "note": "(centres undefined)", "activity change, negative = cytotoxicity": "inactive: -13.7%"},
      {"smiles": "NC(=O)Nc1ccc(C(=O)OCC(=O)N2CCc3ccccc3C2)cc1", "Potency": "inconclusive: 25.9 µM [rising, single point]"},
      {"smiles": "CCCOc1ncnc2c1[nH]c1ccc(OC)cc12", "Potency": "active: 14.6 µM"},
      {"smiles": "C/C=C/c1ccc(OCCOCCOc2cccc3cccnc23)c(OC)c1", "Potency": "inconclusive: 14.6 µM [cytotoxic, partial curve]"},
      {"smiles": "CNCCCC1Sc2ccccc2Oc2ccccc21", "note": "(centres undefined)", "Potency": "inconclusive: 29.1 µM [cytotoxic, single point]"},
      {"smiles": "CCOC(=O)c1sc(NC(=O)Nc2cccc(Cl)c2)cc1C", "Potency": "active: 13 µM"},
      {"smiles": "O=C(c1ccc2nc(N3CCOCC3)sc2c1)N1CCN(c2ccc(Cl)cc2)CC1", "Potency": "inconclusive: 5.8 µM [cytotoxic, partial curve, poor fit]"},
      {"smiles": "O=c1cc(-c2ccccc2Cl)oc2c(NS(=O)(=O)c3ccccc3OC(F)(F)F)ccc(O)c12", "Potency": "inconclusive: 32.6 µM [cytotoxic, single point]"},
      {"smiles": "O=C(C1CC1)N1CCc2cc(Br)c(S(=O)(=O)N3CCCCCC3)cc21", "activity change, negative = cytotoxicity": "inactive: -5.27%"},
      {"smiles": "COc1cc(OC)c(OC)cc1CNC1CCCCCC1", "Potency": "inconclusive: 7.31 µM [cytotoxic, partial curve]"},
      {"smiles": "O=C(CN1CCOCC1)Nc1nc(-c2ccccc2)cs1", "activity change, negative = cytotoxicity": "inactive: -20.8%"},
      {"smiles": "CCOC(=O)C1(Cc2ccc(Cl)cc2)CCN(C(=O)CCc2ccncc2)CC1", "Potency": "active: 4.11 µM"},
      {"smiles": "COc1ccc(-c2cc([C@H]3[C@H]4C=CC[C@@H](C)[C@@H]4C(=O)N3Cc3ccccc3)ccc2F)cc1OC", "Potency": "inconclusive: 29.1 µM [cytotoxic, partial curve, poor fit]"},
      {"smiles": "CCCCc1ccc(NC(=O)CSc2nc(=O)n(CCN(CC)CC)c3c2CCC3)cc1", "activity change, negative = cytotoxicity": "inactive: 14.7%"},
      {"smiles": "COc1ccc(C(O)P(=O)(OCCC(C)C)c2ccc(N(C)C)cc2)cc1", "note": "(centres undefined)", "activity change, negative = cytotoxicity": "inactive: -2.16%"},
      {"smiles": "COC(=O)Cn1c(=NC(=O)c2cccc(OC)c2)sc2cc(OC)ccc21", "Potency": "inconclusive: 8.2 µM [cytotoxic, partial curve, poor fit]"},
      {"smiles": "COc1ccc(Cc2cc(NCc3ccccc3)c3ncn(C(C)C)c3c2)cc1", "Potency": "inconclusive: 29.1 µM [cytotoxic, single point]"},
      {"smiles": "COC(=O)c1cc(S(=O)(=O)NCC2CCN(Cc3cccc(Cl)c3)CC2)c[nH]1", "activity change, negative = cytotoxicity": "inactive: -0.495%"},
      {"smiles": "CCN1CCN(Cc2c3ccccc3cc3ccccc23)CC1", "Potency": "inconclusive: 5.17 µM [cytotoxic, partial curve]"},
      {"smiles": "Cc1nn(-c2ccccc2)c2c1N(CCCC(=O)NCc1ccc(OC(C)C)cc1)C(=O)CS2", "Potency": "inconclusive: 29.1 µM [cytotoxic, single point]"},
      {"smiles": "COCCCNC(=O)Cn1nnc(-c2ccc(NC(=O)c3ccccc3OC)cc2)n1", "Potency": "inconclusive: 16.4 µM [cytotoxic, single point]"},
      {"smiles": "CN(C)c1nc(SCc2ccccc2Cl)nc2c1CCCC2", "activity change, negative = cytotoxicity": "inactive: -30.2%"},
      {"smiles": "CSCCC(NS(=O)(=O)c1ccc(C)cc1)C(=O)N1CC=C(c2ccccc2)CC1", "note": "(centres undefined)", "Potency": "inconclusive: 5.8 µM [cytotoxic, full curve]"},
      {"smiles": "COc1ccc(Cl)cc1NC(=O)C1CCCN(S(=O)(=O)c2ccc3c(c2)CCCC(=O)N3)C1", "note": "(centres undefined)", "Potency": "inconclusive: 18.4 µM [cytotoxic, single point]"},
      {"smiles": "Cc1cc(CNCc2cn(C)nc2-c2ccc(Oc3ccccc3)cc2)on1", "Potency": "inconclusive: 13 µM [cytotoxic, partial curve, poor fit]"},
      {"smiles": "CC(=O)Nc1ccc(N2C(C(C)=O)=NN(c3ccccc3)C2c2cccs2)cc1", "note": "(centres undefined)", "Potency": "inconclusive: 18.4 µM [cytotoxic, single point]"},
      {"smiles": "COc1ccc(C)cc1N=Nc1ccc(O)c2ncccc12", "activity change, negative = cytotoxicity": "inactive: 0%"},
      {"smiles": "COC(=O)c1ccccc1NN=Nc1ccccc1[N+](=O)[O-]", "activity change, negative = cytotoxicity": "inactive: 5.17%"},
      {"smiles": "COc1ccc2[nH]c(C(O)C(O)c3nc4c(OC)c(OC)ccc4[nH]3)nc2c1OC", "note": "(centres undefined)", "activity change, negative = cytotoxicity": "inactive: 8.41%"},
      {"smiles": "O=C(NCCCN1CCOCC1)c1ccc(Sc2ccccc2Cl)c([N+](=O)[O-])c1", "Potency": "active: 13 µM"},
      {"smiles": "Cc1[nH]n(-c2cccc(Cl)c2)c(=O)c1/C=N/n1c(C)nc2ccccc2c1=O", "Potency": "active: 7.31 µM"},
      {"smiles": "COc1ccc(CNC(=O)COC(=O)C2(C)CC2(Cl)Cl)cc1", "note": "(centres undefined)", "Potency": "inconclusive: 7.31 µM [rising, partial curve, poor fit]"},
      {"smiles": "CCC(=NCCc1c(C)[nH]c2ccccc12)C1=C(O)CC(c2ccccc2)CC1=O", "note": "(centres undefined)", "Potency": "active: 3.66 µM"},
      {"smiles": "Cc1ccccc1CN1C(=O)CN(S(C)(=O)=O)CC1(C)C(=O)Nc1ccc2c(c1)OCCO2", "note": "(centres undefined)", "activity change, negative = cytotoxicity": "inactive: -15%"},
      {"smiles": "c1ccc2[nH]c(CN3CCN(c4ncnc5c4oc4ccccc45)CC3)nc2c1", "activity change, negative = cytotoxicity": "inactive: -5.73%"}
    ]}
  ]
}
